Laboratory results: PubChem BioAssay AID1053208 (Peter MacCallum Cancer Centre, 2014)
Purpose: 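Synthetic lethal interactions between gene loss and doxorubicin in osteosarcoma cells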 (primary screen). System: mouse osteosarcoma cells, early-passage culture from an engineered mouse model of fibroblastic bone tumour. Knock-down reagent: siRNA pool against mouse genes, 40 nM. Duration: about 120 h (48 h before drug, then 72 h with drug). Treatment: doxorubicin 100 nM for 72 h, roughly 30-40% inhibitory dose. Detection: 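Luminescent ATP signal taken as viability with or without 100 nM doxorubicin for 72 h; mean of two wells set against non-targeting siRNA and turned into robust z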. Direction: viability z-score with doxorubicin and doxorubicin viability vs non-targeting: higher = more viable cells under doxorubicin; viability z-score without drug: higher = more viable cells with knock-down alone; z-score of drug to no-drug ratio: higher = less drug sensitisation by knock-down. Active means: 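a pool counts as active when its viability z-score with doxorubicin is -2 or below and its z-score without drug lies between -2 and 2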.
Here is an unselected part of about 17,000 deposited reagents. 788 of all reagents (4.7%) were called active. 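Calls rest on z-score classes alone; an extra cut-off of viability at most 70% of control was not applied to them.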 No sequences are given here.

target gene,combined z-score class,viability z-score with doxorubicin,viability z-score without drug,z-score of drug to no-drug ratio,doxorubicin viability vs non-targeting,Call
Med8,low cell count with doxorubicin only,-3.37,-0.17,-3.37,0.64,active
N4bp2l2,no change with or without drug,1.46,0.17,1.46,1.07,inactive
Rab2b,no change with or without drug,-1.12,0.51,-1.35,0.84,inactive
Prok2,no change with or without drug,-0.45,1.69,-1.35,0.9,inactive
Or13c7d,no change with or without drug,0.9,-1.01,1.91,1.02,inactive
Cdkl4,no change with or without drug,1.01,0.51,0.79,1.03,inactive
Dnah11,no change with or without drug,1.12,0.17,1.12,1.04,inactive
Plvap,no change with or without drug,-0.45,1.35,-1.24,0.9,inactive
Hmgcr,no change with or without drug,0.34,-0.34,0.67,0.97,inactive
Fbxw19,no change with or without drug,-0.56,0.51,-0.79,0.89,inactive
Sntb1,no change with or without drug,0.79,-0.51,1.35,1.01,inactive
Ovca2,no change with or without drug,0.9,0,1.01,1.02,inactive
Ctnna2,no change with or without drug,0.11,0.84,-0.34,0.95,inactive
Htr2a,no change with or without drug,-0.79,0.51,-1.01,0.87,inactive
Tssk6,no change with or without drug,1.12,1.18,0.45,1.04,inactive
Hcfc1,no change with or without drug,1.91,0.17,2.02,1.11,inactive
Cfap57,high cell count without drug only,0.9,2.02,-0.34,1.02,inactive
Kctd5,no change with or without drug,-1.12,-0.17,-1.01,0.84,inactive
Dnajc18,no change with or without drug,0.34,0.17,0.34,0.97,inactive
Cd276,no change with or without drug,1.35,1.52,0.45,1.06,inactive
Sema4d,no change with or without drug,0,0.17,0,0.94,inactive
Rae1,low cell count without drug only,-0.45,-2.53,1.57,0.9,inactive
Hba-x,no change with or without drug,-0.22,-0.67,0.34,0.92,inactive
Mrps2,no change with or without drug,-1.46,-0.17,-1.35,0.81,inactive
Gpr161,no change with or without drug,1.12,1.52,0.22,1.04,inactive
Zfp516,no change with or without drug,-0.67,0.67,-1.01,0.88,inactive
Mmut,high cell count without drug only,1.91,2.36,0.45,1.11,inactive
Arhgef28,no change with or without drug,-0.67,-0.17,-0.45,0.88,inactive
Bcl7b,no change with or without drug,0.22,0.51,0,0.96,inactive
Slco1a1,no change with or without drug,1.8,-0.51,2.47,1.1,inactive
Zfp93,no change with or without drug,1.57,1.85,0.45,1.08,inactive
Cdyl2,no change with or without drug,-1.57,-0.84,-1.01,0.8,inactive
Coq5,low cell count with doxorubicin only,-2.02,0.84,-2.47,0.76,active
Patl1,no change with or without drug,0,0.34,-0.11,0.94,inactive
Serpinb6a,no change with or without drug,-0.45,1.18,-1.12,0.9,inactive
Arel1,high cell count with and without drug,2.25,2.19,0.9,1.14,inactive
Reep1,no change with or without drug,1.12,1.01,0.56,1.04,inactive
Wdr19,high cell count without drug only,0.67,2.02,-0.56,1,inactive
Nop58,low cell count with and without drug,-3.93,-5.9,0,0.59,inactive
Lama3,no change with or without drug,0,1.69,-0.9,0.94,inactive
Taar5,no change with or without drug,-0.22,0.17,-0.22,0.92,inactive
Yju2,no change with or without drug,-0.11,-0.17,0.11,0.93,inactive
P2ry4,no change with or without drug,0.9,1.18,0.22,1.02,inactive
Gpx6,no change with or without drug,1.01,0.17,1.01,1.03,inactive
Adam26a,no change with or without drug,-0.11,0.51,-0.34,0.93,inactive
Fsip1,no change with or without drug,0.45,-0.17,0.67,0.98,inactive
Pcgf6,no change with or without drug,-1.12,0.17,-1.12,0.84,inactive
Tlcd1,no change with or without drug,1.12,-0.51,1.69,1.04,inactive
Rbm11,no change with or without drug,0.56,0.17,0.56,0.99,inactive
Ercc4,no change with or without drug,0.45,0.84,0,0.98,inactive

Reformatted: results already given
| target gene | combined z-score class | viability z-score with doxorubicin | viability z-score without drug | z-score of drug to no-drug ratio | doxorubicin viability vs non-targeting | Call |
| --- | --- | --- | --- | --- | --- | --- |
| Tssk6 | no change with or without drug | 1.12 | 1.18 | 0.45 | 1.04 | inactive |
| Hcfc1 | no change with or without drug | 1.91 | 0.17 | 2.02 | 1.11 | inactive |
| Cfap57 | high cell count without drug only | 0.9 | 2.02 | -0.34 | 1.02 | inactive |
| Kctd5 | no change with or without drug | -1.12 | -0.17 | -1.01 | 0.84 | inactive |
| Dnajc18 | no change with or without drug | 0.34 | 0.17 | 0.34 | 0.97 | inactive |
| Cd276 | no change with or without drug | 1.35 | 1.52 | 0.45 | 1.06 | inactive |
